Experimental data taken from PubChem BioAssay AID2685 (National Center for Advancing Translational Sciences (NCATS), 2010).
Some of the results follow. Further columns of the screen follow, without active or inactive calls. Compounds called inactive in the main read-out are mostly missing here. Words in brackets tell the shape of the fitted curve; partial curves, single points and poor fits give uncertain potencies.

Experiment: qHTS Assay for Lipid Storage Modulators in Drosophila S3 Cells;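 as to cell number change: cells counted by Cell Tracker Red CMTPX staining in the red channel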
Conditions: BODIPY lipid droplet fluorescence, 18-24 h; for cell number change: measured here: cell count max response, cells fed with added oleic acid
Procedure, shortened: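 Laser-scanning cytometry quantifies lipid droplet accumulation (500–530 nm total intensity; droplet/cell object ratio) in oleic acid-fed (400 uM added) Drosophila S3 cells treated with a concentration series. 20 uM Triacsin C defined 100% inhibition.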

[1] = measured here: lipid fluorescence (Fed channel) AC50, cells fed with added oleic acid
[2] = measured here: cell number channel AC50, cells fed with added oleic acid

Row | SMILES | cell number change [%] | AC50 [1] | AC50 [2]
1 | COc1ccc(C2C(C#N)=C(N)Oc3cc(O)ccc32)cc1C (stereo unspecified) | 19.9 | – | –
2 | COc1ccc2oc(=O)cc(C)c2c1 | 21.1 | – | –
3 | Cc1cc(C(=O)O)ccc1[N+](=O)[O-] | 5.65 | 0.0058 µM [falling, full curve, poor fit] | –
4 | O=S(=O)(Nc1ccc(S(=O)(=O)Nc2ccccc2)cc1)c1ccccc1 | -21.8 | – | –
5 | COc1ccc(S(=O)(=O)Nc2ccc(C(N)=O)cc2)cc1C(=O)N1CCCCCC1 | 28.2 | 2.59 µM [rising, full curve] | –
6 | Cc1ccc(OCC(=O)Nc2ccccc2N2CCCC2)c(C)c1 | -16.3 | 23.1 µM [falling, single point] | –
7 | O=S(=O)(NCc1ccc(Cl)cc1)c1cccc2cccnc12 | 6.27 | – | –
8 | O=C(CCCCCN1C(=O)c2ccccc2C1=O)Nc1ccccc1 | – | 2.06 µM [rising, partial curve] | 1.84 µM [rising, partial curve]
9 | Cc1ccc(Cn2ccsc2=NC(=O)COC(=O)C(C)C)cc1 | 22.7 | – | –
10 | Cc1ccc(-c2noc(CCC(=O)N3CCCC3)n2)cc1 | 32.5 | – | 29.1 µM [rising, single point]
11 | CCOc1ccc(S(=O)(=O)N2CCN(CC)CC2)cc1NC(=O)c1ccccc1F | -34.2 | – | 29.1 µM [falling, partial curve, poor fit]
12 | O=C(NCC1CCN(Cc2ccccc2F)CC1)Nc1cc(F)ccc1F | -20.8 | – | –
13 | Cc1nn(CC(=O)N2CCN(c3cccc(C(F)(F)F)c3)CC2)c(=O)c2cccn12 | – | 6.51 µM [falling, single point] | –
14 | S=C(Nc1ccc(Cc2ccncc2)cc1)Nc1cccc(Cl)c1 | 38.6 | – | 5.17 µM [rising, full curve, poor fit]
15 | O=C(COc1ccc(Cl)cc1)c1ccc(O)cc1O | -5.39 | – | –
16 | O=C(Nc1ccc(NC(=O)c2ccccc2)nc1)c1ccncc1 | -27.6 | 6.51 µM [falling, single point] | –
17 | Oc1ccc(C2C[C@H]3CC[C@@H]2C3)cc1O (stereo partly specified) | -23.6 | – | –
18 | Cc1ccccc1NC(=O)Cc1nc(CCl)cs1 | 18.2 | 18.4 µM [rising, single point] | –
19 | Cc1ccc(OCc2cc(C(=O)N3CCc4sccc4C3)no2)cc1C | -2.02 | 29.1 µM [rising, single point] | –
20 | OC(COc1ccc(Cl)cc1Cl)CN1CCc2ccccc2C1 (stereo unspecified) | 12.4 | – | –
21 | Cc1ccc(S(=O)(=O)N2CCN(C(=O)c3cc(C4CC4)nc4c3cnn4C(C)C)CC2)cc1 | -43 | 2.31 µM [falling, partial curve] | 32.6 µM [falling, single point]
22 | Cn1c(CSc2nc3ccc(Br)cc3[nH]2)nc2ccccc21 | 0.0604 | 0.291 µM [rising, full curve, poor fit] | –

3 entries out of the list, ordered by formula weight, rising:
Row | SMILES | cell number change [%] | AC50 [1] | AC50 [2]
2 | COc1ccc2oc(=O)cc(C)c2c1 | 21.1 | – | –
15 | O=C(COc1ccc(Cl)cc1)c1ccc(O)cc1O | -5.39 | – | –
6 | Cc1ccc(OCC(=O)Nc2ccccc2N2CCCC2)c(C)c1 | -16.3 | 23.1 µM [falling, single point] | –

The results go on:

Row | SMILES | cell number change [%] | AC50 [1] | AC50 [2]
23 | NC(=O)C1CCCN(C(=O)c2ccc3oc(Cc4ccc(Cl)cc4)nc3c2)C1 (stereo unspecified) | 2.09 | 16.4 µM [rising, single point] | –
24 | CC1C(=O)N2CCCc3cc(NC(=O)COc4ccc(Cl)cc4)cc1c32 (stereo unspecified) | – | 0.411 µM [rising, full curve, poor fit] | 1.03 µM [rising, partial curve]
25 | Cc1cc(NC(=O)c2cc(-c3cccs3)nc3ccccc23)no1 | 43.1 | – | 18.4 µM [rising, single point]
26 | CS(=O)(=O)N1CCC(C(=O)c2cccc(Cl)c2)CC1 | -0.242 | – | –
27 | CC(=O)N1CCc2cc(S(=O)(=O)Nc3ccccc3N3CCN(C)CC3)ccc21 | – | 3.26 µM [rising, partial curve] | 4.61 µM [falling, single point]
28 | CCOC(=O)c1cc2ccccc2n1CCN(CC)CC | 15 | 29.1 µM [falling, single point] | –
29 | Cc1cccc2c(=O)n3c(nc12)CCCCC3 | -1.16 | – | –
30 | CCOc1ccc(OCC)c(NC(=O)Nc2ccc3c(c2)N(C)C(=O)CS3)c1 | 11.8 | 1.64 µM [rising, partial curve] | 0.651 µM [rising, partial curve, poor fit]
31 | O=c1cc(CO)occ1OCc1c(F)cccc1Cl | -14.7 | – | 6.51 µM [rising, single point]
32 | CC(=O)N1CCCc2cc(S(=O)(=O)Nc3ccccc3C)ccc21 | 9.68 | 0.326 µM [rising, full curve, poor fit] | –
33 | CCOC(=O)N1CCN(CCC(=O)Nc2ccc(F)c(F)c2)CC1 | 1.01 | 6.51 µM [rising, single point] | –
34 | O=C(O)COc1ccccc1/C=N/NC(=O)c1cc(-c2ccc(Cl)cc2)nc2ccccc12 | 8.72 | 5.17 µM [rising, partial curve] | –
35 | O=C(CSc1ccsc1[N+](=O)[O-])N1CCN(c2ccccc2)CC1 | -3.3 | 0.92 µM [rising, full curve, poor fit] | –
36 | CCc1ccc(S(=O)(=O)N/N=C(/C)c2ccncc2)cc1 | 5.49 | 1.84 µM [rising, partial curve, poor fit] | –
37 | COc1ccc(/C=N/NC(=O)COc2cccc3ccccc23)c(C(=O)O)c1OC | -21.1 | 0.731 µM [falling, full curve, poor fit] | –
38 | COc1ccc(C)cc1NC(=O)c1cc2ccccc2cc1OCC(=O)NCc1ccco1 | -45.3 | – | –
39 | CCOC(=O)CSc1nnc(CSc2nc3sc4c(c3c(=O)[nH]2)CCC4)n1-c1ccccc1 | -79 | 0.651 µM [falling, single point] | 1.84 µM [falling, partial curve]
40 | COc1ccc(CC(=O)N/N=C/c2ccc(-c3cccc(C(=O)O)c3)o2)cc1OC | – | 0.103 µM [falling, full curve, poor fit] | –
41 | C=CCn1cc(C(=O)N2CCN(CC)CC2)c(=O)c2cc(S(=O)(=O)N(CC)CC)ccc21 | 38.3 | – | 32.6 µM [rising, single point]
42 | CCOc1ccccc1NC(=O)Nc1ccncc1 | – | 6.31 µM [falling, single point] | –
43 | O=C(O)c1cccc(S(=O)(=O)Nc2ccccc2Cc2ccccc2)c1 | 6.76 | 29.1 µM [falling, single point] | –
44 | O=C(CCSc1ccccn1)c1ccccc1 | 42.3 | 1.46 µM [rising, partial curve, poor fit] | 1.03 µM [rising, full curve]

Some of the entries above, reformatted.
Row	SMILES	cell number change [%]	AC50 [1]	AC50 [2]
7	O=S(=O)(NCc1ccc(Cl)cc1)c1cccc2cccnc12	6.27	–	–
18	Cc1ccccc1NC(=O)Cc1nc(CCl)cs1	18.2	18.4 µM [rising, single point]	–
33	CCOC(=O)N1CCN(CCC(=O)Nc2ccc(F)c(F)c2)CC1	1.01	6.51 µM [rising, single point]	–

Further entries:

Row | SMILES | cell number change [%] | AC50 [1] | AC50 [2]
45 | COc1ccc(-c2c(NC(=O)c3ccco3)oc3ccccc3c2=O)cc1OC | 18.9 | 29.1 µM [rising, single point] | –
46 | COc1ccc2[nH]c(C(=O)NCc3ccccc3)c(C)c2c1 | 26.1 | – | 2.31 µM [rising, full curve, poor fit]
47 | COc1cc(/C=C/C(=O)O)ccc1OS(=O)(=O)c1cc(Br)ccc1C | -12.8 | 13 µM [rising, partial curve, poor fit] | –
48 | Oc1ccc(Nc2nnc(-c3ccc(O)cc3)c3ccccc23)cc1 | 6.85 | – | –
49 | CCOC(=O)c1c(C)[nH]c(C(=O)C(C)Sc2ccc(Cl)cc2)c1C (stereo unspecified) | -19.2 | 0.146 µM [falling, full curve] | –
50 | Cc1ccccc1NC(=S)N=Nc1c(O)n(C)c2ccc(S(=O)(=O)N3CCOCC3)cc12 | -22 | 2.06 µM [falling, partial curve, poor fit] | –
51 | CCOC(=O)COc1cc(OCC(=O)OCC)c2c3c(c(=O)oc2c1)CCCC3 | 12.6 | – | –
52 | N#C/C(=C\C1CC2C=CC1C2)c1nc2ccccc2[nH]1 (stereo unspecified) | 32.2 | – | 0.184 µM [rising, full curve, poor fit]
53 | COc1ccc(CN2CCN(C(=O)c3ccc(-c4ccccc4)cc3)CC2)c(OC)c1OC | -11.7 | 6.51 µM [falling, single point] | –
54 | CC1CCC(=C(C#N)c2nc(-c3cc4ccccc4oc3=O)cs2)CC1 (stereo unspecified) | – | 0.461 µM [rising, single point] | –
55 | COc1ccc(OCC(=O)O/N=C(\N)Cc2ccc(Cl)cc2Cl)cc1 | – | 29.1 µM [rising, single point] | –
56 | OC(CC1CC12c1ccccc1-c1ncccc12)(c1ccccc1)c1ccccc1 (stereo unspecified) | -36.4 | 1.84 µM [rising, full curve] | 1.84 µM [rising, partial curve]
57 | CC(=O)c1c(C)[nH]c(C(=O)COc2ccc3ccc(=O)oc3c2)c1C | -11.8 | 29.1 µM [falling, single point] | –
58 | COc1ccc(CCN(C)C(=O)CSc2ncnc3sccc23)cc1OC | 55.3 | – | 7.31 µM [rising, partial curve]
59 | O=C(NC(=O)c1c(F)cccc1F)Nc1ccccc1SC(F)F | 31.5 | 4.11 µM [rising, single point] | 0.116 µM [rising, full curve, poor fit]
60 | CCCc1c(C(=O)Nc2cc(C(C)(C)C)on2)cnn1-c1ccccc1 | -1.98 | 0.092 µM [rising, full curve, poor fit] | –
61 | O=C(O)c1ccccc1Nc1cc(Cl)c2nonc2c1[N+](=O)[O-] | -8.01 | – | –
62 | CC(NC(=O)c1ccc(F)cc1Cl)C1CC2CCC1C2 (stereo unspecified) | 12.2 | – | –
63 | Cc1ccc(NC(=O)C(C)[n+]2ccccc2)cc1[N+](=O)[O-] (stereo unspecified) | -11.2 | 18.4 µM [rising, single point] | –
64 | Cc1cccc(-c2noc(CN(C)C(=O)COc3ccccc3)n2)c1 | -3.59 | 29.1 µM [rising, partial curve, poor fit] | –
65 | CS(=O)(=O)c1nc(-c2ccccc2)cc(C(F)(F)F)n1 | -75.2 | 3.26 µM [falling, full curve] | 3.26 µM [falling, full curve]
